{
  "source": "patent US12667580B2",
  "about": "“Retinoic acid precursor and anticancer drug composition comprising same” (INDUSTRIAL COOPERATION FOUNDATION JEONBUK NATIONAL …, priority 2021, dated 2026)",
  "key": {"GSH in A549 cells": {"tested_on": "GSH in A549 cells", "assay": "Intracellular GSH levels", "type": "cell-based", "parameters": "dose or concentration left out as unconfirmed", "description": "Therefore, an experiment was conducted to measure intracellular GSH levels in A549 cells treated with tRABA."}, "[1]": {"tested_on": "calreticulin (CRT) in A549 cells", "assay": "CRT level by flow cytometry", "type": "cell-based", "description": "Next, since immunogenic apoptosis enhances immunogenicity and anticancer effects by releasing damage-associated molecular pattern (DAMP) substances during the cell dying process, an experiment was performed to confirm whether tRABA nanoparticles induce immunogenic cell death to improve immunogenicity. First, the expression levels of DAMPs such as calreticulin (CRT) and high mobility group box 1 (HMGB1) were confirmed as endoplasmic reticulum (ER) stress markers."}, "[2]": {"tested_on": "reactive oxygen species (ROS) in cancer cells", "assay": "ROS level with DCFH-DA probe", "type": "cell-based"}, "[3]": {"assay": "Self-assembly of nanoparticles in water, particle size and SEM", "type": "physicochemical", "settings": "THF solution added to water; SEM", "description": "RABA dissolved in tetrahydrofuran (THF) was added to water while stirring. During dilution in water, strong light scattering occurred due to the Tyndall phenomenon. […] The mean hydrodynamic diameter was measured to be ˜120 nm.\nIt was confirmed that the nanoparticles existed in a spherical colloidal state. In addition, an experiment was performed to confirm self-assembly of Compound 2, which is produced during the preparation process of RA and RABA."}, "tumor model mice": {"tested_on": "tumor model mice", "assay": "Tumor growth inhibition in tumor model mice", "type": "in vivo, mouse", "settings": "i.v. on Days 1, 4, 7, 10, 13; RA 3 mg/kg, HBA 1.5 mg/kg, tRABA 5 mg/kg", "description": "Next, the anticancer effect was evaluated by administering a therapeutic drug in the tumor model mice when the tumor size reached 50 mm^3. A therapeutic drug was intravenously administered on Days 1, 4, 7, 10, and 13 to the tumor model mice."}, "[4]": {"tested_on": "HMGB1 released from A549 cells", "assay": "HMGB-1 release", "type": "cell-based", "description": "Next, since it is known that HMGB-1 is a nuclear protein that binds to DNA and is triggered by an apoptosis inducer and that in the late stage of apoptosis, cells are destroyed and HMGB-1 is released into the tumor microenvironment to induce dendritic cell maturation and antigen presentation, an experiment was performed to confirm the effect of tRABA nanoparticles on HMGB-1 release."}},
  "note": "For at least one compound, name, drawing or mass did not settle the structure.",
  "data": [
    {"smiles": "CC1=C(/C=C/C(C)=C/C=C/C(C)=C/C(=O)O)C(C)(C)CCC1", "note": "[RA, Retinoic acid]", "values": [
      {"measurement": "intracellular GSH levels", "setting": "GSH in A549 cells", "value": "no effect on the GSH levels"},
      {"measurement": "level of CRT", "setting": "[1]", "value": "almost no effect"},
      {"measurement": "production of ROS", "setting": "[2]", "value": "induced the production of ROS in the cells to some extent"},
      {"measurement": "self-assembly into nanoparticles", "setting": "[3]", "value": "failed to undergo self-assembly"},
      {"measurement": "tumor growth inhibition", "setting": "tumor model mice", "value": "negligible inhibitory effect on tumor growth"},
      {"measurement": "level of HMGB-1", "setting": "[4]", "value": "significantly increased the level of HMGB-1"}
    ]}
  ]
}
